In patent US20060008801A1 (EFFECTOR CELL INSTITUTE, published 2006) one finds binding data, which are given here for 1 molecule.

Sequences of proteins named here, by UniProt entry; tags and fusion partners are left off.
UniProt P51681: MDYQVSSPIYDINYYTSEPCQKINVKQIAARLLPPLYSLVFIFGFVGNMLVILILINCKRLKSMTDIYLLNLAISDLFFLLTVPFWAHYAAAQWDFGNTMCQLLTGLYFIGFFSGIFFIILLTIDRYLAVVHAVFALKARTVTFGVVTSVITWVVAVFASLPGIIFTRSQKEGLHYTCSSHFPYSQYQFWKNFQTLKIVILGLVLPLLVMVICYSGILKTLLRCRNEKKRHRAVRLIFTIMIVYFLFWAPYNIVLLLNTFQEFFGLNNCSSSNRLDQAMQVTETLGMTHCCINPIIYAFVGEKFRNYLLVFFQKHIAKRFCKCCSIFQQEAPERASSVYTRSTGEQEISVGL

The assay has as its target CCR5 expressed in pEGFP-FROUNT transformed HEK293 cells (UniProt P51681). The experiment in a line: fluorescence microscopy of HEK cells (colocalization).

No constants are given. Whether binding was seen depends on the method and setting. Some entries that bind do so weakly or less than the wild type. Sequences can lack the tags named with a protein.

B1: green fluorescent protein-fused FROUNT protein 1 (pEGFP-FROUNT), expressed in HEK293 cells (protein, not shown: large carriers)
chain: MYFDWGPGEMLVCETSFNKKEKSEMVPSCPFIYIIRKDVDVYSQILRKLFNESHGIFLGLQRIDEELTGKSRKSQLVRVSKNYRSVIRACMEEMHQVAIAAKDPANGRQFSSQVSILSAMELIWNLCEILFIEVAPAGPLLLHLLDWVRLHVCEVDSLSADVLGSENPSKHDSFWNLVTILVLQGRLDEARQMLSKEADASPASAGICRIMGDLMRTMPILSPGNTQTLTELELKWQHWHEECERYLQDSTFATSPHLESLLKIMLGDEAALLEQKELLSNWYHFLVTRLLYSNPTVKPIDLHYYAQSSLDLFLGGESSPEPLDNILLAAFEFDIHQVIKECSIALSNWWFVAHLTDLLDHCKLLQSHNLYFGSNMREFLLLEYASGLFAHPSLWQLGVDYFDYCPELGRVSLELHIERIPLNTEQKALKVLRICEQRQMTEQVRSICKILAMKAVRNNRLGSALSWSIRAKDAAFATLVSDRFLRDYCERGCFSDLDLIDNLGPAMMLSDRLTFLGKYREFHRMYGEKRFADAASLLLSLMTSRIAPRSFWMTLLTDALPLLEQKQVIFSAEQTYELMRCLEDLTSRRPVHGESDTEQLQDDDIETTKVEMLRLSLARNLARAIIREGSLEGS
Consider B1, for which the binding result is listed as “binds”.
